These results are taken from article PMC6210257.

Amino acid sequences for entries named in this document (tags omitted).
UniProt P67809: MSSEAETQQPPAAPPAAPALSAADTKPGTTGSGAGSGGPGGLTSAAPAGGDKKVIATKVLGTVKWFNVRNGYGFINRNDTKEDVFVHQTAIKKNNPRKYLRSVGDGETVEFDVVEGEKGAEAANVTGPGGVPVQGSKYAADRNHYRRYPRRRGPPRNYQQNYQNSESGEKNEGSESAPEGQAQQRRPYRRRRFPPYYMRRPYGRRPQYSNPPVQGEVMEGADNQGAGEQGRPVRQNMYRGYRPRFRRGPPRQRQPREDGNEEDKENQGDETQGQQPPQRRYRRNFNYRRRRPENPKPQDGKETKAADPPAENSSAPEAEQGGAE
UniProt P11940: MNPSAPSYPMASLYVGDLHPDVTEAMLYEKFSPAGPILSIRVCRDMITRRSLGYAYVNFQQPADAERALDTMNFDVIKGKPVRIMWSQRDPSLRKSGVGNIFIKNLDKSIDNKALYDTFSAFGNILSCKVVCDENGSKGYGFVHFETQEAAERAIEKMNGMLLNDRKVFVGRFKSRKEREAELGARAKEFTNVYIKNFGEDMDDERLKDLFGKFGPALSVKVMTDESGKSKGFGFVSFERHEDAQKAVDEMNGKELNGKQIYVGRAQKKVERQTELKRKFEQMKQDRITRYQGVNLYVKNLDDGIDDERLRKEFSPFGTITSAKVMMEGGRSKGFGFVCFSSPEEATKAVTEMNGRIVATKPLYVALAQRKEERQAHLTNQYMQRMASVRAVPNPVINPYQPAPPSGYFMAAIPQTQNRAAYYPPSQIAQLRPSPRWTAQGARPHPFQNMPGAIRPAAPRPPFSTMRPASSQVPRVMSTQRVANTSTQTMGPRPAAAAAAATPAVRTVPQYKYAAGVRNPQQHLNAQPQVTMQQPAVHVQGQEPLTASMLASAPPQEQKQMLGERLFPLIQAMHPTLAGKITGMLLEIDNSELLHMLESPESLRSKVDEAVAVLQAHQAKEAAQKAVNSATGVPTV

Assay [1] addresses Y-box binding protein 1 (YB-1) (human (endogenous in HEK293T)) (UniProt P67809). Nature of the assay: co-IP; total protein extracts of HEK293T cells treated with 250 uM sodium arsenite for 30 min; antibody overnight at 4 °C, Dynabeads Protein G 4 h at 4 °C; results and legend: YB-1 precipitated, PABP1 blotted (methods: anti-PABP1 precipitation, anti-YB-1 blot).
For assay [2] the target is unchanged. Nature of the assay: co-IP; total protein extracts of untreated HEK293T cells (no sodium arsenite); antibody overnight at 4 °C, Dynabeads Protein G 4 h at 4 °C; results and legend: YB-1 precipitated, PABP1 blotted (methods: anti-PABP1 precipitation, anti-YB-1 blot).

Results are given in words; binding and its absence hold for the method and conditions named. Binding seen in cells or lysates may run through a third protein. Some results given as binding are weak or reduced against the parent protein; the word gives no strength.

Turning to “Poly(A)-binding protein 1 (PABP1) (from UniProt P11940 1-636)”, the binding entry in assay [1] is “binds”; in assay [2], “no binding (condition: cells left untreated (no Na Ars))”.
